No constants are given. Whether binding was seen depends on the method and setting. Binding seen in cells or lysates may run through a third protein. Some results given as binding are weak or reduced against the parent protein; the word gives no strength.
Biological target: Kelch-like ECH-associated protein 1 (mouse (endogenous in primary SLCs)) (UniProt Q9Z2X8)
Assay: co-IP; lysates of primary SLCs from young and aged mice; LP2 lysis buffer (20 mM Tris-HCl pH 7.7, 100 mM NaCl, 10 mM NaF, 20 mM β-glycerophosphate, 5 mM MgCl2, 0.1% Triton X-100, 5% glycerol) with benzonase; antibody-carrying beads 4–12 h at 4 °C; Western blot; precipitating antibody not stated in the …

The chains behind the UniProt entries cited, without tags or fusion partners.
UniProt Q9Z2X8: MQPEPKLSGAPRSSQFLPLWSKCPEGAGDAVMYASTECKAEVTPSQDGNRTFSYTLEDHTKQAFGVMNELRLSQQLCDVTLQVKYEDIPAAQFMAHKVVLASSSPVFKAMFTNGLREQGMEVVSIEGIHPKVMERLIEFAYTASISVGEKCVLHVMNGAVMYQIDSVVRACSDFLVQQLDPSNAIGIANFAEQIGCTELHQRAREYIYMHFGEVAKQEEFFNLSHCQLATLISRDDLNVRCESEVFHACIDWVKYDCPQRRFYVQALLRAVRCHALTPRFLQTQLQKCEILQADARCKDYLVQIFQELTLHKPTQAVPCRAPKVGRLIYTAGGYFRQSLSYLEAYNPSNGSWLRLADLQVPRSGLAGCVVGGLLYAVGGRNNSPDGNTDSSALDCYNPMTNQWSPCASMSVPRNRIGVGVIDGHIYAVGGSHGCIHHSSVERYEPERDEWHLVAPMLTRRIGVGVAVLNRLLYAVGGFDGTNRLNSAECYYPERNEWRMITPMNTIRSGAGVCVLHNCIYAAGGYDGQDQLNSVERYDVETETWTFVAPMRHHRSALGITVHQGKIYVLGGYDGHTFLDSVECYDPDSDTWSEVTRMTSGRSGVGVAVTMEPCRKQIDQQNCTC
UniProt Q6P5H2: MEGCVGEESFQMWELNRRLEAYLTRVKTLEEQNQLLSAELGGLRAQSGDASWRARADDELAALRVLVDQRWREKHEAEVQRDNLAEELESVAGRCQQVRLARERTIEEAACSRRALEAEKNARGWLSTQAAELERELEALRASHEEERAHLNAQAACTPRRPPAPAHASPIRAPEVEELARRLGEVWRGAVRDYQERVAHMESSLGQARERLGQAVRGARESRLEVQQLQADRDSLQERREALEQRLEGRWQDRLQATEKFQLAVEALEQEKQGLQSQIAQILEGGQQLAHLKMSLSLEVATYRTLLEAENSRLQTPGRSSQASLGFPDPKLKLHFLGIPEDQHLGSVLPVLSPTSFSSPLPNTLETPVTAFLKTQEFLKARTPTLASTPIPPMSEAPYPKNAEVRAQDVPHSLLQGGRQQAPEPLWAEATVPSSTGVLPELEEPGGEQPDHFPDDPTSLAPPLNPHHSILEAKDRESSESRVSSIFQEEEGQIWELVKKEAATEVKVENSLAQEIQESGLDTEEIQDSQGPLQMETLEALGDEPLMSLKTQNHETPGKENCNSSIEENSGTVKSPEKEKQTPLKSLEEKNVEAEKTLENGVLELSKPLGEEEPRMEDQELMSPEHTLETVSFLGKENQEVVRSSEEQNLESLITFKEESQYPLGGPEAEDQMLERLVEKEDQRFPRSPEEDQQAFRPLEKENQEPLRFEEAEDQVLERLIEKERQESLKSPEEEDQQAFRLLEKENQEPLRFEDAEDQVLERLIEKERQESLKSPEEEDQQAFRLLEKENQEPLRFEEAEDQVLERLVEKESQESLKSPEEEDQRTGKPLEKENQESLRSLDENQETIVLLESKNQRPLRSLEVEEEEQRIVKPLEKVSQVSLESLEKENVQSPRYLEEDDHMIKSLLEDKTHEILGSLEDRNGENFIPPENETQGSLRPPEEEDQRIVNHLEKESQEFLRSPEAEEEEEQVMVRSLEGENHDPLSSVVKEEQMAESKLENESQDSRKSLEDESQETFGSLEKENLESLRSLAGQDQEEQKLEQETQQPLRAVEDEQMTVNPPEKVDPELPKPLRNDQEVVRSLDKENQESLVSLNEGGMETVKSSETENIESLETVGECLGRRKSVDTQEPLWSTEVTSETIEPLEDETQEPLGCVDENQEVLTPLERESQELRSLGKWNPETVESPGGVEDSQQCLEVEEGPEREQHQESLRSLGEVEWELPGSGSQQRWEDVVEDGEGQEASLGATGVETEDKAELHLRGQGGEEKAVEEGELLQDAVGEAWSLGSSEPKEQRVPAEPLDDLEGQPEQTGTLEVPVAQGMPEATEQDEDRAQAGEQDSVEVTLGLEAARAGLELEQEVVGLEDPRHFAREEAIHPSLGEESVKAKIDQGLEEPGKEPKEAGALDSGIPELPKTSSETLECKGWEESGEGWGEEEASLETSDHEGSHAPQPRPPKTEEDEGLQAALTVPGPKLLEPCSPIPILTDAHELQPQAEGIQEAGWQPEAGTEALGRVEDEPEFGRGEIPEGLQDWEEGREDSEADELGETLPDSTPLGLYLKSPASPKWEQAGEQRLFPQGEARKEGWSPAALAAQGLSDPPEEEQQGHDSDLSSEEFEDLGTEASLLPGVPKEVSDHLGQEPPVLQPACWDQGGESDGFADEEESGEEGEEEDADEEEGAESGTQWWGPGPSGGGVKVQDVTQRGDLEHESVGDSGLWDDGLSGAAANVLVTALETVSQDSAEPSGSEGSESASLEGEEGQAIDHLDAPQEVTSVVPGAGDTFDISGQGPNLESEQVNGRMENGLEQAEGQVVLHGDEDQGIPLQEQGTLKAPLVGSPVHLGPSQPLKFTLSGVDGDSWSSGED

Nestin (from UniProt Q6P5H2 1-1864)
binding: binds

— paper PMC9276759
